Results are given in words; binding and its absence hold for the method and conditions named. Some binding calls cover weakened binding; strength is not graded here. For some assays here: Where a sequence is shown, tags or fusion partners need not be part of it.
Experiments:
[1] = target: T1, Lu/BCAM on the surface of HeLa cells (human (endogenous in HeLa)) (UniProt P50895); assay: flow cytometry on cells; competition: HeLa cells (3 × 10^5 in 1 mL medium) preincubated with unlabeled CNF proteins at different molar ratios, 30 min at 4 °C, washed, then DyLight488-labeled GST-CNF1; bound fluorescence against the control without preincubation; only the binder purified
T1 sequence: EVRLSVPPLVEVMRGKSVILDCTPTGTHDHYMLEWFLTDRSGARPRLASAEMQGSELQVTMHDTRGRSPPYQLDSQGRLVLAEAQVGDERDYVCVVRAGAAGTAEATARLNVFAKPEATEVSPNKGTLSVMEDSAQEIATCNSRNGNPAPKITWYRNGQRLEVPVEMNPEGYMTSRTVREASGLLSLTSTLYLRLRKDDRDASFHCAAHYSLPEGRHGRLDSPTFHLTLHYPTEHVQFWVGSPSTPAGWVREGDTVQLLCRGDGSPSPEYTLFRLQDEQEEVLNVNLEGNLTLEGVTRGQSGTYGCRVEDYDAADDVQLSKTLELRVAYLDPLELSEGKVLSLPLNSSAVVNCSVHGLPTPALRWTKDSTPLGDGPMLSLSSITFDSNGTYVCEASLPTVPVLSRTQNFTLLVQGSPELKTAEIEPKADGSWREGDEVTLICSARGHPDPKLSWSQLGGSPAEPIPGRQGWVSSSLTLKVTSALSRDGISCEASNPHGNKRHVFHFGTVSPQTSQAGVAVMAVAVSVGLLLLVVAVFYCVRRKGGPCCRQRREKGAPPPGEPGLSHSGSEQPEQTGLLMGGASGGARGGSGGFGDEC

[2] = target: T2, Lu expressed on K562 cells (UniProt P50895); assay: flow cytometry on cells; only the binder purified
T2 sequence: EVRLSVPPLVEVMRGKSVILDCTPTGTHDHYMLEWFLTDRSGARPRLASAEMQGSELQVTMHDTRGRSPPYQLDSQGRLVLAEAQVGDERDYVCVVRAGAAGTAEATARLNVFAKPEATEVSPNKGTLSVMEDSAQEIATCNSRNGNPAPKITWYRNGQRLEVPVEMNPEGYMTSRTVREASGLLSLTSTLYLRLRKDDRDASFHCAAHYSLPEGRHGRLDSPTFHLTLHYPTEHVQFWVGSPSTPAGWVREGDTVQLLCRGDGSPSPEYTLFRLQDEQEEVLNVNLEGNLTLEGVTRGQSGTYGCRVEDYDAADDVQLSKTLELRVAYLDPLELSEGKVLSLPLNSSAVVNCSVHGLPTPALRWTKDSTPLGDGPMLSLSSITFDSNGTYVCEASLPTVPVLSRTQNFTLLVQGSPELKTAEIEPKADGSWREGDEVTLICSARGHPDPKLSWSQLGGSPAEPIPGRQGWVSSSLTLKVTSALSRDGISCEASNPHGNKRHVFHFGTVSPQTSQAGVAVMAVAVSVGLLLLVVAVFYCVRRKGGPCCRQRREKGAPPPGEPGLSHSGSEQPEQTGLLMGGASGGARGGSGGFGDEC

[3] = target: GST-CNF1 (726–1014) (Escherichia coli) (UniProt Q47106); assay: far-Western, overlay or dot blot; CNF proteins spotted on a nitrocellulose membrane, incubated with 5 µM rLu/BCAM in TBST for 30 min, then blocked with 5% milk; bound rLu/BCAM detected with an anti-Lu/BCAM antibody; both purified
[4] = target: GST-CNF1 (730–1014) (Escherichia coli) (UniProt Q47106); assay: as above
[5] = target: GST-CNF1 (K726S S727I) (Escherichia coli) (UniProt Q47106); assay: as above

| Molecule | binding [1] | further results |
| --- | --- | --- |
| GST-CNF1 (K726S S727I) (from UniProt Q47106 1-1014) | binds | – |
| GST-CNF1 (726–1014) (from UniProt Q47106 726-1014) (domain or fragment) | binds | – |
| GST-CNF1 (720–1014) (from UniProt Q47106 720-1014) (domain or fragment) | binds | – |
| GST-CNF1 (full-length Cytotoxic Necrotizing Factor 1 of Escherichia coli as GST fusion) (from UniProt Q47106 1-1014) | binds | binding [2]: binds |
| Recombinant human extracellular rLu/BCAM with Fc-tag (Fc fusion, also called rLu/BCAM-Fc; recombinant Lu/BCAM; source: bought: Hölzel Diagnostika Handels GmbH) EVRLSVPPLVEVMRGKSVILDCTPTGTHDHYMLEWFLTDRSGARPRLASAEMQGSELQVTMHDTRGRSPPYQLDSQGRLVLAEAQVGDERDYVCVVRAGAAGTAEATARLNVFAKPEATEVSPNKGTLSVMEDSAQEIATCNSRNGNPAPKITWYRNGQRLEVPVEMNPEGYMTSRTVREASGLLSLTSTLYLRLRKDDRDASFHCAAHYSLPEGRHGRLDSPTFHLTLHYPTEHVQFWVGSPSTPAGWVREGDTVQLLCRGDGSPSPEYTLFRLQDEQEEVLNVNLEGNLTLEGVTRGQSGTYGCRVEDYDAADDVQLSKTLELRVAYLDPLELSEGKVLSLPLNSSAVVNCSVHGLPTPALRWTKDSTPLGDGPMLSLSSITFDSNGTYVCEASLPTVPVLSRTQNFTLLVQGSPELKTAEIEPKADGSWREGDEVTLICSARGHPDPKLSWSQLGGSPAEPIPGRQGWVSSSLTLKVTSALSRDGISCEASNPHGNKRHVFHFGTVSPQTSQA | – | binding [3]: binds weakly; binding [4]: no binding (tested: 5 µM); binding [5]: binds |
